Data reported in paper PMC10076289.
Results are given in words; binding and its absence hold for the method and conditions named. In cells and extracts the contact can be indirect. Some results given as binding are weak or reduced against the parent protein; the word gives no strength.

By UniProt entry, the sequences of proteins in these tests, tags left out.
UniProt Q02078: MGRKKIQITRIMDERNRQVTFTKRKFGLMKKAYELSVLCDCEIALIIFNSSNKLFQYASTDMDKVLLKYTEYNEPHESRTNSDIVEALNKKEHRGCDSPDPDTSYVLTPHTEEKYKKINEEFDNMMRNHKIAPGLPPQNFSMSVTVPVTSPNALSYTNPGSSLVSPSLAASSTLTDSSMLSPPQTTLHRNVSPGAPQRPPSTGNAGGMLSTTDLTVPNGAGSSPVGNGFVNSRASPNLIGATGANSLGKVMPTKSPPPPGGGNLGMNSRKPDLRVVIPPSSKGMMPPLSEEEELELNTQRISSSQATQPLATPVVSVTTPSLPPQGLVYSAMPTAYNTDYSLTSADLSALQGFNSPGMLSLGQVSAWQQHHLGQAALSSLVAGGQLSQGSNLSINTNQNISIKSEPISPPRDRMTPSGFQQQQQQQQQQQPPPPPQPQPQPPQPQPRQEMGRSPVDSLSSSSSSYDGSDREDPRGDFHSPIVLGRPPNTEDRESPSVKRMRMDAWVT
UniProt O15379: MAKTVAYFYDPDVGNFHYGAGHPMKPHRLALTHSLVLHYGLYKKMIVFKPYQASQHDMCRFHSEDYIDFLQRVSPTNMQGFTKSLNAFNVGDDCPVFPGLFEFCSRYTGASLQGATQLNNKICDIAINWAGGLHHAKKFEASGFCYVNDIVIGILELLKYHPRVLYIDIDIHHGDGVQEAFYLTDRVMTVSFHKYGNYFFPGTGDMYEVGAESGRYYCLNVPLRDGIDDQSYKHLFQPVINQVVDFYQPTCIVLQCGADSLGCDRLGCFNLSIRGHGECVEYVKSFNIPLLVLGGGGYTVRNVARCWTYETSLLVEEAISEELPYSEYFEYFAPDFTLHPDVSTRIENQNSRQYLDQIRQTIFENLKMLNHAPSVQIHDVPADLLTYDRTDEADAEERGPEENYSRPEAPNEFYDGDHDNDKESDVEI
UniProt P52631: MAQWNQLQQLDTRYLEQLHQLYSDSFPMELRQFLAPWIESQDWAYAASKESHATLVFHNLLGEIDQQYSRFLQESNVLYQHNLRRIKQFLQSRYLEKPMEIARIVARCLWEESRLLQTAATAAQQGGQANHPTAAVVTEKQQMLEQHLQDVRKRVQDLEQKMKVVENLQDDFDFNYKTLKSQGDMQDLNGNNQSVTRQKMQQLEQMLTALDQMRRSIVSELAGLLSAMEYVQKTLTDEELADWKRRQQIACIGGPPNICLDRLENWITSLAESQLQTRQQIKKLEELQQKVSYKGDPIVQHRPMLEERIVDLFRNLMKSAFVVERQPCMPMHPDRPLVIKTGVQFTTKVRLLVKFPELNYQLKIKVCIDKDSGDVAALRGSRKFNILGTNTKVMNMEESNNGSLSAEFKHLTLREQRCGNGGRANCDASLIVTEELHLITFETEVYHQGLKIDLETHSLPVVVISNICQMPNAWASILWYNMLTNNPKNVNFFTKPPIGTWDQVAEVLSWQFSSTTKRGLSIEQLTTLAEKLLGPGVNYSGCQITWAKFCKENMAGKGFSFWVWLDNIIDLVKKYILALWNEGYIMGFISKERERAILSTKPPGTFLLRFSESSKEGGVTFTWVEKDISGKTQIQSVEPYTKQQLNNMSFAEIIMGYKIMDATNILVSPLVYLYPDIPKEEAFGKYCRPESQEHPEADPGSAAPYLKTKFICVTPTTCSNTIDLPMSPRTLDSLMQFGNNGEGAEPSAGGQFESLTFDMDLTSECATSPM
UniProt Q2MJT0: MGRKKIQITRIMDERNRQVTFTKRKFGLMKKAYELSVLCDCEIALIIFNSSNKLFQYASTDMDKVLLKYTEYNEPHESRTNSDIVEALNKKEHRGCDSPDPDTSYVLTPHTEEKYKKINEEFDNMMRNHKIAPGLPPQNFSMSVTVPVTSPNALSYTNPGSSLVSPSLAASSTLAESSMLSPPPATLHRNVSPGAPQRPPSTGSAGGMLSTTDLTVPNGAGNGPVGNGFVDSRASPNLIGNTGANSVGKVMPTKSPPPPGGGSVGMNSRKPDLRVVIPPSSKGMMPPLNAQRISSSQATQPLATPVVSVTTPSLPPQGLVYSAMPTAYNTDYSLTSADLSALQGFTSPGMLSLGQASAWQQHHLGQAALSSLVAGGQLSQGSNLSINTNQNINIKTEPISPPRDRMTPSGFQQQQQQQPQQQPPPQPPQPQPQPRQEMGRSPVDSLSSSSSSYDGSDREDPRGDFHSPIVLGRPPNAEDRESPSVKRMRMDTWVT

What was measured:
3xFlag-MEF2A = 3xFlag-MEF2A (UniProt Q02078); assay: co-IP; lysates (NP-40 lysis buffer) of primary rat cardiomyocytes transfected with the Flag-tagged bait, anti-Flag M2 magnetic beads, Western blot of eluates; non-transfected lysates as control; for Flag-MEF2A also after isoproterenol (24 h), HDAC3 inhibitor RGFP966 or STAT3 inhibitor C188-9
Flag-HDAC3 = Flag-HDAC3 (UniProt O15379); assay: as above
[1] = molecular target: STAT3 (rat (endogenous in primary neonatal rat cardiomyocytes)) (UniProt P52631); assay: co-IP; endogenous proteins from non-transfected primary rat cardiomyocyte lysates, IP with MEF2A antibody or STAT3 antibody, IgG as control, Western blot
[2] = molecular target: endogenous MEF2A (rat (endogenous in primary neonatal rat cardiomyocytes)) (UniProt Q2MJT0); assay: as above

Substance: STAT3 (from UniProt P52631 1-770)
- binding (3xFlag-MEF2A): binds
- binding (Flag-HDAC3): binds

Substance: endogenous MEF2A (from UniProt Q2MJT0 1-495)
- binding [1]: binds

Substance: RBPMS (from UniProt A0A8I6G705 1-197)
- binding [2]: binds
